PubChem BioAssay AID1259261 – Sanger Institute – 2017
Purpose: 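Kinase knock-downs that kill colorectal cancer cells or boost targeted drugs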 (primary screen). Cell system: HCC2998 human colorectal cancer cells. Reagent: siRNA pool against human genes. Treatment: anchor drugs BYL719 1 µM, cetuximab 5 µg/ml or trametinib 10 nM, each compared with DMSO vehicle. Measurement: 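Cell viability relative to non-targeting siRNA, averaged over replicates, with robust z-score for siRNA alone and synergy scores with each anchor drug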. Direction: viability z-score, knock-down alone: higher = more viable cells than controls; viability fraction, knock-down alone: higher = more viable cells; synergy score with BYL719: higher = stronger combined killing with BYL719; synergy score with trametinib: higher = stronger combined killing with trametinib; synergy score with cetuximab: higher = stronger combined killing with cetuximab. Hit rule: 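Essential when the siRNA-alone viability robust z-score is below -3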. Meaning of the calls: active = essential; inactive = no change.
In all, the deposit lists 794 reagents; this is an unselected part. Of all reagents, 10 (1.3%) are marked active. 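Calls reflect knock-down alone without drug; synergy scores with BYL719, cetuximab or trametinib do not affect calls.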 No viability above 1 is reported: the scale is capped. The record does not give: the amount of reagent, the time to read-out.

Gene	viability z-score, knock-down alone	viability fraction, knock-down alone	synergy score with BYL719	synergy score with trametinib	synergy score with cetuximab	outcome
RUNX1 (RUNX family transcription factor 1)	0.238	0.879	0.043	-0.103	0.0596	inactive
BRSK2 (BR serine/threonine kinase 2)	1.18	0.996	-0.0452	0.029	0.0475	inactive
SF3B1 (splicing factor 3b subunit 1)	-3.66	0.389	-0.0565	-0.00484	0.0473	active
ACSL6 (acyl-CoA synthetase long chain family member 6)	-0.304	0.811	-0.12	-0.123	-0.172	inactive
NTN4 (netrin 4)	-0.599	0.774	-0.0284	0.113	0.0639	inactive
MATK (megakaryocyte-associated tyrosine kinase)	0.526	0.915	0.116	-0.0485	0.118	inactive
CPNE3 (copine 3)	-1.31	0.684	0.00604	0.022	-0.129	inactive
PIP5KL1 (phosphatidylinositol-4-phosphate 5-kinase like 1)	1.21	1	0.0721	-0.031	-0.0432	inactive
SOS2 (SOS Ras/Rho guanine nucleotide exchange factor 2)	0.154	0.868	-0.0728	0.0261	-0.118	inactive
FLT4 (fms related receptor tyrosine kinase 4)	0.618	0.926	0.0318	0.136	-0.112	inactive
